Measurements published in patent publication EP1104768B1, “Peptide sequences from aspergillus fumigatus for the diagnosis of aspergillosis” (COUNCIL OF SCIENTIFIC AND INDUSTRIAL RESEARCH, priority 1999, dated 2006).
At least one peptide structure holds a part that was inferred or is arguable (an end, a ring closure or a residue). No end group written: not given here.

Columns and labels:
[1] = test system: A. fumigatus specific IgG antibodies; assay: ELISA of peptide-coated plates with patient or healthy sera, specific IgG binding; settings: diluted 1 : 100, anti-human IgG-HRP conjugate; for Absorbance at 490 nm Patient sera Specific IgG: sera of allergic bronchopulmonary aspergillosis patients; for Absorbance at 490 nm Normal sera Specific IgG: sera of healthy persons
[2] = test system: A. fumigatus specific IgE antibodies; assay: ELISA of peptides with patient or healthy sera, specific IgE binding; set-up: species or system human; settings: diluted 1 : 100; for Absorbance at 490 nm Patient sera Specific IgE: sera of allergic bronchopulmonary aspergillosis patients; for Absorbance at 490 nm Normal sera Specific IgE: sera of healthy persons
BALB/c mice = assay: Immunisation of mice with peptides, ELISA of specific IgG antibodies in serum; type: in vivo; settings: 300ug /150ul saline with Freund's incomplete adjuvant, intraperitoneal; serum 30 days after immunization; IgG bound to A. fumigatus allergens/ antigens in ELISA
[3] = test system: Peripheral blood lymphocytes (PBL); assay: Cytokine analysis of PBMC's supernatants incubated with the peptides; type: cell-based, human; settings: supernatant of 2 x 10^6 cells/well cultured 6 days with peptide
[4] = test system: sensitised mast cells of ABPA patients; assay: Histamine release from whole blood incubated with peptides; type: cell-based, human; settings: 30 min at 37°C; for Histamine released Patient: heparinised whole blood of ABPA patient; for Histamine released Normal: heparinised whole blood

| Substance | Absorbance at 490 nm Patient sera Specific IgG [1] | Absorbance at 490 nm Normal sera Specific IgG [1] | Absorbance at 490 nm Patient sera Specific IgE [2] | Absorbance at 490 nm Normal sera Specific IgE [2] | Absorbance at 490 nm Immunised mice (BALB/c mice) | Cytokines IL-2 [3] [pg/mL] | Cytokines IL-4 [3] [pg/mL] | Cytokines IL-6 [3] [pg/mL] | Cytokines IL-10 [3] [pg/mL] | Cytokines gamma-IFN [3] [pg/mL] | Histamine released Patient [4] [nM] | Histamine released Normal [4] [nM] |
| --- | --- | --- | --- | --- | --- | --- | --- | --- | --- | --- | --- | --- |
| INQQLNPK [pep 3, INQQLNPK] | 0.674 | 0.011 | 0.256 | 0.042 | 0.434 | 80 | 92 | 620 | 220 | 168 | 369 | 65 |
| INQQLNPKTNKWEDK [pep 4, INQQLNPKTNKWEDK] | 0.845 | 0.006 | 0.235 | 0.028 | 0.526 | 400 | 28 | 120 | 40 | 520 | 392 | 58 |
| LNPKTNKWEDK [pep 2, LNPKTNKWEDK] | 0.852 | 0.09 | 0.473 | 0.039 | 0.636 | 280 | 48 | 140 | 80 | 320 | 402 | 82 |
| LNPKTNKWEDKRY [pep 6, LNPKTNKWEDKRY] | 0.828 | 0.004 | 0.145 | 0.033 | 0.547 | 120 | 62 | 760 | 340 | 240 | 278 | 62 |
| TNKWEDK [pep 5, TNKWEDK] | 0.850 | 0.012 | 0.208 | 0.032 | 0.498 | 260 | 24 | 180 | 36 | 660 | 356 | 43 |
